In patent US10344077:
These are yes or no findings as the source states them, for the method shown.

Sequences of proteins named here, by UniProt entry; tags and fusion partners are left off. Residues count along the entry.
UniProt P11387, residues 2-765: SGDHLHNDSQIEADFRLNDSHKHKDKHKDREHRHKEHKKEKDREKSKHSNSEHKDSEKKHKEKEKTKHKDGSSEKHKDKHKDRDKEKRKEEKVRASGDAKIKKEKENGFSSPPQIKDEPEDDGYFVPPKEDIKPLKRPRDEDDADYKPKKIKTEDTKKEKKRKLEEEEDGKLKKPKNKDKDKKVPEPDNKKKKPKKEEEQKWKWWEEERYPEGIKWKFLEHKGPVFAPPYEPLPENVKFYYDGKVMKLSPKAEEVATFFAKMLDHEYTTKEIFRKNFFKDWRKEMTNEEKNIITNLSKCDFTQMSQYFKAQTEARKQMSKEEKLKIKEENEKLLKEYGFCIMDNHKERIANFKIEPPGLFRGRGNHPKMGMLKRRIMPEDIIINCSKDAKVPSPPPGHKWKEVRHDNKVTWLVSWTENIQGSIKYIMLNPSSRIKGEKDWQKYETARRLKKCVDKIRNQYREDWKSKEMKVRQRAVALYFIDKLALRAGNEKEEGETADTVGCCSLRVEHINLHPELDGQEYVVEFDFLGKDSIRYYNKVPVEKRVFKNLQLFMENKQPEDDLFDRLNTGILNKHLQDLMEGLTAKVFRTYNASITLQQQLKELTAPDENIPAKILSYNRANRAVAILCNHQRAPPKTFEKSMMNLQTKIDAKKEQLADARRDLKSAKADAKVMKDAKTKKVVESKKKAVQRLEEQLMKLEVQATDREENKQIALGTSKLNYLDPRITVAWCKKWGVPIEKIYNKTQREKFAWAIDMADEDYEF

T1: Centromere B (UniProt P07199)
T1 sequence (looked up): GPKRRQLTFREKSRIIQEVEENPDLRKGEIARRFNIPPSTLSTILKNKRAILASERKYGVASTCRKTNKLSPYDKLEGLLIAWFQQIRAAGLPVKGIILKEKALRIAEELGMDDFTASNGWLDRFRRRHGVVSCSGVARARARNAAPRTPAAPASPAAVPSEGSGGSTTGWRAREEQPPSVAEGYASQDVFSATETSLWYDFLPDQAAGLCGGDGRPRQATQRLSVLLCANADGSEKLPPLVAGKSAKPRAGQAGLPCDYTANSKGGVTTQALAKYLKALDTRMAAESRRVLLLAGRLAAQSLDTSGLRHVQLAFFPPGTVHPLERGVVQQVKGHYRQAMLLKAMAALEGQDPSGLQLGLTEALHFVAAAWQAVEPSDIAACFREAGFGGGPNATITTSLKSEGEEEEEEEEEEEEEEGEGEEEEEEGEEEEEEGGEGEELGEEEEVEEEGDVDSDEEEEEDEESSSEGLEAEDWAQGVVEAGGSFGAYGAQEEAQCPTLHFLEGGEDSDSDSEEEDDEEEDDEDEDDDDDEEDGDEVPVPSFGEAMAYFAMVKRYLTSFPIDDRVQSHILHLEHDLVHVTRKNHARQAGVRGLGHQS

T2: Jo-1 (UniProt P12081)
T2 sequence (looked up): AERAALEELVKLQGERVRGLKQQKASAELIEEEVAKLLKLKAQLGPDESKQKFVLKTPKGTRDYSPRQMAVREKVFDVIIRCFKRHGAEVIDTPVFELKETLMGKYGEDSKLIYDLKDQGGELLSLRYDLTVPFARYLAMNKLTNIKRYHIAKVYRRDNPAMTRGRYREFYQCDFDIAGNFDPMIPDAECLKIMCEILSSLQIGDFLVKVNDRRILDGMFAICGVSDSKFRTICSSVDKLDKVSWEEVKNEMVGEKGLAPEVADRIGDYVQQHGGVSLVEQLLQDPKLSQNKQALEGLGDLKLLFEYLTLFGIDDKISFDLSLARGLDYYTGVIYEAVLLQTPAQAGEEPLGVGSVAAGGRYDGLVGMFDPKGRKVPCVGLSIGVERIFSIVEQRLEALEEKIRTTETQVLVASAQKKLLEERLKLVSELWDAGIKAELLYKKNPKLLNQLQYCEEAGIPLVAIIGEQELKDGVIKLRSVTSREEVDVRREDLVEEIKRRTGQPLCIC

B1: CH557 (antibody, V domains shown)
VH: QVRLAQYGGGVKRLGATMTLSCVASGYTFNDYYIHWVRQAPGQGFELLGYIDPANGRPDYAGALRERLSFYRDKSMETLYMDLRSLRYDDTAMYYCVRNVGTAGSLLHYDHWGSGSPVIVSS
VL: EIVLTQSPATLSASPGERVTLTCRASRSVRNNVAWYQHKGGQSPRLLIYDASTRAAGVPARFSGSASGTEFTLAISNLESEDFTVYFCLQYNNWWTFGQGTRVDIK
B2: DH542 (antibody, V domains shown)
VH: QVQLVQSGAQMKNPGASVKVSCAPSGYTFTDFYIHWLRQAPGQGLQWMGWMNPQTGRTNTARNFQGRVTMTRDTSIGTAYMELRSLTSDDTAIYYCTTGGWISLYYDSSYYPNFDHWGQGTLLTVSS
VL: TSLLTQPASVSGSPGQSITISCTGTKYDVGSHDLVSWYQQYPGKVPKYMIYEVNKRPSGVSNRFSGSKSGNTASLTISGLRAEDEADYYCCSFGGSATVVCGGGTKVTVL

Legend:
Assay in all cases: AtheNA
[1] = target: T1, Centromere B
[2] = target: T2, Jo-1
[3] = target: Scl-70 (UniProt P11387)
[4] = substrate: T3, SSB (UniProt P05455)
T3 sequence (looked up): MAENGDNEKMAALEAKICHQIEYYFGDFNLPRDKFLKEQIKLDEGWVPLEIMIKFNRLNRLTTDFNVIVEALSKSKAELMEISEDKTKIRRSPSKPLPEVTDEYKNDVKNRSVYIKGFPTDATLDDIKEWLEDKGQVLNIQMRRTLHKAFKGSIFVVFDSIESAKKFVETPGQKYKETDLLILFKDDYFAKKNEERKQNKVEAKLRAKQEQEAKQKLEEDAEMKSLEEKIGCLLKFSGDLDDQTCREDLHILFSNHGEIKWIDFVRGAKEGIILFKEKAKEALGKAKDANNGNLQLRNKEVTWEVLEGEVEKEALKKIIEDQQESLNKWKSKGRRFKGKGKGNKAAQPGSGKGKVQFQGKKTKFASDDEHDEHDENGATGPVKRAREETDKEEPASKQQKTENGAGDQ

Row | Binder | binding [1] | binding [2] | binding [3] | binding [4]
1 | B1 | no binding (tested: 6.25 ug/ml to 50 ug/ml) |  |  | 
2 | B2 | no binding (tested: Readings <100 are considered negative) | no binding (tested: Readings <100 are considered negative) | no binding (tested: Readings <100 are considered negative) | no binding (tested: Readings <100 are considered negative)
